Where a name gives a salt, the structure may show the parent alone. The list shows a part of the results. The calls rarely recur for the same compound in another form.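 In K562 cells expressing nanoluciferase-fused kinases, luminescence was recorded at 4 h intervals between 2 and 18 h, normalized as percent of control with DMSO at 100% and a positive control at 0%. A significant (2 sigma) signal drop marks a time point as decreased. The authors' rule for a hit is not shown and takes in more than the number of time points.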
Tests used:
Assay in all cases: kinase-Nluc reporter destabilization hit call (1 = scored as downregulated) (binary); higher = compound decreases kinase abundance
Details in all cases: K562; 2-18 h
[1] = target: PDPK1 (UniProt O15530)
[2] = target: PIK4CA (UniProt P42356)
[3] = target: PIK4CB (UniProt Q9UBF8)
[4] = target: PLK1 (UniProt P53350)
[5] = target: PRKAA1 (UniProt Q13131)
[6] = target: PRKCA (UniProt P17252)
[7] = target: PTK2 (UniProt Q05397)
[8] = target: PTK2B (UniProt Q14289)
[9] = target: RAF1 (UniProt P04049)
[10] = target: RAF1_S257L (clone: RAF1_mut) (UniProt P04049)

Amino acid sequences for entries named in this document (tags omitted). A change or cut given only in a name is not applied to a line headed by its entry.
UniProt O15530: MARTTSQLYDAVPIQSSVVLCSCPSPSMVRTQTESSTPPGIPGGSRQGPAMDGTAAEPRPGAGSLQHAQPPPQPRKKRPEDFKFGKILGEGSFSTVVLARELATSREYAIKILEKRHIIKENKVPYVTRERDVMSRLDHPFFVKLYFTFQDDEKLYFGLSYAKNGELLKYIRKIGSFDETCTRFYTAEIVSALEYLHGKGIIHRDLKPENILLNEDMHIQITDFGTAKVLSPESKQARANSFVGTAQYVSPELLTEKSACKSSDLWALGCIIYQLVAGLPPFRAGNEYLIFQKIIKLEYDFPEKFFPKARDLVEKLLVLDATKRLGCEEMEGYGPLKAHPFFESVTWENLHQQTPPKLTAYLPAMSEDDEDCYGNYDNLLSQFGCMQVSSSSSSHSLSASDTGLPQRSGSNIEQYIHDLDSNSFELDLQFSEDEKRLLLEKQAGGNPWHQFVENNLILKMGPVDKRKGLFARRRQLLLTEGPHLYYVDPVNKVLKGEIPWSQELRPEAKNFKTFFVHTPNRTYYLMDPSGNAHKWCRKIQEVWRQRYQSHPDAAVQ
UniProt P42356, whole entry, looked up: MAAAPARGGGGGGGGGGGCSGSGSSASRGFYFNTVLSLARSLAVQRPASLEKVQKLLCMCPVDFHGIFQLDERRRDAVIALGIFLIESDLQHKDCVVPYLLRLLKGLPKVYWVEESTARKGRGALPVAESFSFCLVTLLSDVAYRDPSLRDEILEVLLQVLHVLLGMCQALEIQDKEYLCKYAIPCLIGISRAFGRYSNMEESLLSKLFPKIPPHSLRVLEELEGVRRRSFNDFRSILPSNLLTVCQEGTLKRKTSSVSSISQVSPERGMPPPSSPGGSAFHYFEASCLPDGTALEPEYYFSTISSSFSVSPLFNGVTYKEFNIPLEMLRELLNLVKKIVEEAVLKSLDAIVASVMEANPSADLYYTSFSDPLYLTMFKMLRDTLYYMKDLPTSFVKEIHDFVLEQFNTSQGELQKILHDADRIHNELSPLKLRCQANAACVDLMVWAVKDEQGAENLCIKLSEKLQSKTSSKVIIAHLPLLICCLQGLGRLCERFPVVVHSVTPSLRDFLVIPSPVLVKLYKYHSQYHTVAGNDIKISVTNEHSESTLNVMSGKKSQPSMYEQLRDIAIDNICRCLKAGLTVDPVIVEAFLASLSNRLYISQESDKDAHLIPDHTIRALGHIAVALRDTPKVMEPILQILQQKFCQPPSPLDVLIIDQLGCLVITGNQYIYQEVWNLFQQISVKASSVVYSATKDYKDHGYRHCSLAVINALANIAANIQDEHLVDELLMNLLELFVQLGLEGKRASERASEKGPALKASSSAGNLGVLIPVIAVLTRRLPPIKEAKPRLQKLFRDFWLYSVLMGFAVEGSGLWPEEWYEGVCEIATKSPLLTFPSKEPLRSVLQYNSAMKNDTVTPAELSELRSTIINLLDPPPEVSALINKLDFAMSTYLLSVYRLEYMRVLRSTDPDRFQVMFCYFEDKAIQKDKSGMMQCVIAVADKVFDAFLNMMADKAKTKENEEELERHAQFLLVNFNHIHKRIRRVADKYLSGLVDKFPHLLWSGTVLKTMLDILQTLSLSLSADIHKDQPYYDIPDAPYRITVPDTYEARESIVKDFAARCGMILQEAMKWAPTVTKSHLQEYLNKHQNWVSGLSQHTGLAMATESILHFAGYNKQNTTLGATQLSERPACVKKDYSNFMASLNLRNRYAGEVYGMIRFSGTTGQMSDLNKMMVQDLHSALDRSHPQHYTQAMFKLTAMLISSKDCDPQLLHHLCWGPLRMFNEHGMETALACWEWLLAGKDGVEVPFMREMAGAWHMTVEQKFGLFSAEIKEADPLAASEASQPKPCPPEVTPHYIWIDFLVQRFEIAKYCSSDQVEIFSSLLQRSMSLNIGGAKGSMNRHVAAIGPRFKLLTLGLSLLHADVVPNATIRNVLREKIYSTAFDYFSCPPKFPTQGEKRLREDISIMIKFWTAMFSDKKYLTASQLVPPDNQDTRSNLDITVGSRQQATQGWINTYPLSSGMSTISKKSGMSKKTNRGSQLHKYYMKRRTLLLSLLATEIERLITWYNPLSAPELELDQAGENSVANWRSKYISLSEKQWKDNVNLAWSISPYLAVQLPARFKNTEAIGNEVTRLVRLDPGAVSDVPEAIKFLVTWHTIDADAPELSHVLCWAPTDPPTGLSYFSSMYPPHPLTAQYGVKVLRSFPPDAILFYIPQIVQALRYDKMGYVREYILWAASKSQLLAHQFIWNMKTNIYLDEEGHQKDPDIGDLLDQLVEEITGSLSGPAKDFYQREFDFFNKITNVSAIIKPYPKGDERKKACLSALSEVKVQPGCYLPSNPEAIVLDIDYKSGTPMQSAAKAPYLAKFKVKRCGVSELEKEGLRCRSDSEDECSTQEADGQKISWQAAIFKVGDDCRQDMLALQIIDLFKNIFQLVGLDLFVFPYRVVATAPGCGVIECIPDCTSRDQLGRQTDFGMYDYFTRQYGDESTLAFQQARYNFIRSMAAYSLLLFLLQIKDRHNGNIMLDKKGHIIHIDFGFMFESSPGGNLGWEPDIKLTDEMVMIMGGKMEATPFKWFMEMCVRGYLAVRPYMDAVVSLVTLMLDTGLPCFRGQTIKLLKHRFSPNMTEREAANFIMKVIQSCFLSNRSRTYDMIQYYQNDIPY
UniProt P53350, whole entry: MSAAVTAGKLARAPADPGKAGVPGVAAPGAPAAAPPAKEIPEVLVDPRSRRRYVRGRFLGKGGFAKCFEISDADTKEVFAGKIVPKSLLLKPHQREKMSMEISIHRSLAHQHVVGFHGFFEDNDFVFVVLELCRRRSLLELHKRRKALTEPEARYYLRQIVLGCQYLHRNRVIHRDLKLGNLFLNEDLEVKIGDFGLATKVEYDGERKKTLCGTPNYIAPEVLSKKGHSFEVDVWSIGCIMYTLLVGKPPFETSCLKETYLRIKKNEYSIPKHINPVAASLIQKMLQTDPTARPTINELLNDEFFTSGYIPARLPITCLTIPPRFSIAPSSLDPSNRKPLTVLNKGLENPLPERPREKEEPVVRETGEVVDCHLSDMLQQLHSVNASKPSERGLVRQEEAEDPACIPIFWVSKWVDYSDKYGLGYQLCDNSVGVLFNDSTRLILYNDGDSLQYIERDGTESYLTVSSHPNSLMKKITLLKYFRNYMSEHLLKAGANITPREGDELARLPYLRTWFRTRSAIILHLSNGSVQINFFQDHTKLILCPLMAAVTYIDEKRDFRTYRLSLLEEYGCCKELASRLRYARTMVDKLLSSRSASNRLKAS
UniProt Q13131: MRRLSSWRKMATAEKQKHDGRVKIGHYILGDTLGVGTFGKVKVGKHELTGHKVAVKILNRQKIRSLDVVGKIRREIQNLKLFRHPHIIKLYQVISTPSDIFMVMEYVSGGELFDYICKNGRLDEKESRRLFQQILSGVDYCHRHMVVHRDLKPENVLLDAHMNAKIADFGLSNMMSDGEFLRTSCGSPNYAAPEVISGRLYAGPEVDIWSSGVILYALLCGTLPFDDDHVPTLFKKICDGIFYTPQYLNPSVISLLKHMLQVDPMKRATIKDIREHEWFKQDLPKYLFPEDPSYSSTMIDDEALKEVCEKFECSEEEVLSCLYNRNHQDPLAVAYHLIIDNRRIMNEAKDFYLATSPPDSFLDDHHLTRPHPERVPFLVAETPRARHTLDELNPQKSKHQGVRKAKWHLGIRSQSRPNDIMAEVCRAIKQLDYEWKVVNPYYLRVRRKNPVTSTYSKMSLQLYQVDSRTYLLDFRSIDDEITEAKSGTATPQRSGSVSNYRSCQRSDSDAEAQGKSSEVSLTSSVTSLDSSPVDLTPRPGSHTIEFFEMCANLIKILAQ
UniProt Q05397, whole entry, looked up: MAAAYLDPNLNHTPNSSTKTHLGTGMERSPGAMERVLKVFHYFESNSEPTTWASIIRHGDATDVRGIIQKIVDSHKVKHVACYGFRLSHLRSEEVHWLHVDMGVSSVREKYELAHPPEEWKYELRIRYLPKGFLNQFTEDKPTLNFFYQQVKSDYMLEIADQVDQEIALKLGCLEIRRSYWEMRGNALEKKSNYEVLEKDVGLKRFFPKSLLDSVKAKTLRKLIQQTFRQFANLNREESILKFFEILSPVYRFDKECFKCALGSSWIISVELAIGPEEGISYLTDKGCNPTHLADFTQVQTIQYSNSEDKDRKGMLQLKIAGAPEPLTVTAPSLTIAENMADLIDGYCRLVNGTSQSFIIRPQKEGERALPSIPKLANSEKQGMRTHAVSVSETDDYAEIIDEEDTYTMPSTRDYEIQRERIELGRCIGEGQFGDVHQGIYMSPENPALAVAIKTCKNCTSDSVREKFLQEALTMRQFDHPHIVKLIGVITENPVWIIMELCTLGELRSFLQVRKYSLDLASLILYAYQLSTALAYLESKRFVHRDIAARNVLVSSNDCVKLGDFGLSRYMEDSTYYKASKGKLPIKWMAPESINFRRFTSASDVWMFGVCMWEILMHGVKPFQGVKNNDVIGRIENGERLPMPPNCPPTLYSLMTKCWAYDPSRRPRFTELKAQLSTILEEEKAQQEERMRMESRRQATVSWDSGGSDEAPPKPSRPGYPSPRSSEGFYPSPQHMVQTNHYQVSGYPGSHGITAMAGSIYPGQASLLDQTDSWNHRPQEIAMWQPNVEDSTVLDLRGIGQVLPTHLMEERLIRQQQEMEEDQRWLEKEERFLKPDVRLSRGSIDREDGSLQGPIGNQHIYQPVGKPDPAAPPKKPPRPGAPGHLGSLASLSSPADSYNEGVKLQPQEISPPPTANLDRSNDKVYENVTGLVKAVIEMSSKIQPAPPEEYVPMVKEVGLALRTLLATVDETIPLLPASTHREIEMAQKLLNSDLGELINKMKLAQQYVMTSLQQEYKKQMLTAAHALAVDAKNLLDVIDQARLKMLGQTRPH
UniProt Q14289, whole entry, looked up: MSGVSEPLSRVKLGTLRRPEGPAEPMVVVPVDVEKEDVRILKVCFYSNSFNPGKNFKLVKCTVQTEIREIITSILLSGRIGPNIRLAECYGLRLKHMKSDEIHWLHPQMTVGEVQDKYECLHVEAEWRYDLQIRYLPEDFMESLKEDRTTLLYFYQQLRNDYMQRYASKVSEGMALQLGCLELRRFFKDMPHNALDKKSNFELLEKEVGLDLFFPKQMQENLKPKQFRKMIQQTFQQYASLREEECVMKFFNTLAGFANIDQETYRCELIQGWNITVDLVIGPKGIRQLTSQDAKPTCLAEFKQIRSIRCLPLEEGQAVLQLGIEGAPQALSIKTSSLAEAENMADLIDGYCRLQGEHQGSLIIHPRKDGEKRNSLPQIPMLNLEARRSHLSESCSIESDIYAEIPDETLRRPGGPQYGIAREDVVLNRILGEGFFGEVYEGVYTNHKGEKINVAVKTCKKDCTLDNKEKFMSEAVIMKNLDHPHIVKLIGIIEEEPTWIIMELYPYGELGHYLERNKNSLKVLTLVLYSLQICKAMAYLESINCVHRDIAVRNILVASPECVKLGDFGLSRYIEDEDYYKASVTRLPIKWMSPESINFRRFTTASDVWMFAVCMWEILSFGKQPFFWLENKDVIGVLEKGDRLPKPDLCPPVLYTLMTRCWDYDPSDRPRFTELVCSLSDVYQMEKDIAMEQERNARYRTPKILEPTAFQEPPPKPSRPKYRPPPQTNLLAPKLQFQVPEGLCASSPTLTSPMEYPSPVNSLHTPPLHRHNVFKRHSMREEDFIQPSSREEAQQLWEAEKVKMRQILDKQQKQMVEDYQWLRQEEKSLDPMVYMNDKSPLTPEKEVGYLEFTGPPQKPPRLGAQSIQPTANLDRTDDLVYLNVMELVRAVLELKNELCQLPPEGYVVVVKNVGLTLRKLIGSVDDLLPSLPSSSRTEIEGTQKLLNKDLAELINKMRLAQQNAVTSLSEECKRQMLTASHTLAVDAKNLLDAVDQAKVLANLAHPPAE

Measured: kinase-Nluc reporter destabilization hit call

COc1cccc(-c2cc(=O)c3ccccc3o2)c1N (10 µM)
inactive: [1] 0 | [2] 0 | [3] 0 | [4] 0 | [5] 0 | [6] 0 | [7] 0 | [8] 0 | [9] 0 | [10] 0

Cn1cc(C2=C(c3ccc(Cl)cc3Cl)C(=O)NC2=O)c2ccccc21 (10 µM)
inactive: [1] 0 | [2] 0 | [3] 0 | [4] 0 | [5] 0 | [6] 0 | [7] 0 | [8] 0 | [9] 0 | [10] 0

CCCCNc1ncc2c(-c3ccc(F)cc3)nn(CC3CCC(N)CC3)c2n1 (stereo not given) (2.5 µM)
inactive: [1] 0 | [2] 0 | [3] 0 | [4] 0 | [5] 0 | [6] 0 | [7] 0 | [8] 0 | [9] 0 | [10] 0

Cn1cnc2c(F)c(Nc3ccc(Br)cc3F)c(C(=O)NOCCO)cc21 [Binimetinib] (10 µM)
inactive: [1] 0 | [2] 0 | [3] 0 | [4] 0 | [5] 0 | [6] 0 | [7] 0 | [8] 0 | [9] 0 | [10] 0

CN1CCC(Nc2ccc(C(=O)Nc3cc(-c4ccc5c(c4)OCO5)[nH]n3)cc2)CC1 (10 µM)
inactive: [1] 0 | [2] 0 | [3] 0 | [4] 0 | [5] 0 | [6] 0 | [7] 0 | [8] 0 | [9] 0 | [10] 0

N#Cc1cc(N2CCC(C(=O)N3N=CC[C@H]3c3cc(F)cc(F)c3)CC2)ncn1 (10 µM)
inactive: [1] 0 | [2] 0 | [3] 0 | [4] 0 | [5] 0 | [6] 0 | [7] 0 | [8] 0 | [9] 0 | [10] 0

N#Cc1cnc(Nc2cc(NC[C@H]3CNCCO3)c(C(F)(F)F)cn2)cn1 (10 µM)
inactive: [1] 0 | [2] 0 | [3] 0 | [4] 0 | [5] 0 | [6] 0 | [7] 0 | [8] 0 | [9] 0 | [10] 0

Cc1cnc(Cl)nc1-c1ccc(N(Cc2ccc(CNC(=O)C(F)F)cc2)C(=O)c2ccc(O)cc2O)cc1 (10 µM)
inactive: [1] 0 | [2] 0 | [3] 0 | [4] 0 | [5] 0 | [6] 0 | [7] 0 | [8] 0 | [9] 0 | [10] 0

CCc1c(C(=O)NNC(=O)[C@H](O)c2cc(F)cc(F)c2)ccc(O)c1C (10 µM)
inactive: [1] 0 | [2] 0 | [3] 0 | [4] 0 | [5] 0 | [6] 0 | [7] 0 | [8] 0 | [9] 0 | [10] 0

COc1ccc(-c2cc(=O)c3c(O)cc(O)cc3o2)cc1-c1c(O)cc(O)c2c(=O)cc(-c3ccc(O)cc3)oc12 [Bilobetin] (2.5 µM)
inactive: [1] 0 | [2] 0 | [3] 0 | [4] 0 | [5] 0 | [6] 0 | [7] 0 | [8] 0 | [9] 0 | [10] 0

CN(C)c1cc[n+](Cc2ccc(OCCOc3ccc(C[n+]4ccc(N(C)C)cc4)cc3)cc2)cc1 (10 µM)
inactive: [1] 0 | [2] 0 | [3] 0 | [4] 0 | [5] 0 | [6] 0 | [7] 0 | [8] 0 | [9] 0 | [10] 0

O=C(NCc1ccn[nH]1)c1cc([C@@H]2CCNC[C@H]2COc2ccc3c(c2)OCO3)ccc1F [GRK2-IN-1 (hydrochloride)] (10 µM)
inactive: [1] 0 | [2] 0 | [3] 0 | [4] 0 | [5] 0 | [6] 0 | [7] 0 | [8] 0 | [9] 0 | [10] 0

CC(C)(CCCCCC(O)CCCCCC(C)(C)C(=O)O)C(=O)O [Bempedoic acid] (10 µM)
inactive: [1] 0 | [2] 0 | [3] 0 | [4] 0 | [5] 0 | [6] 0 | [7] 0 | [8] 0 | [9] 0 | [10] 0

COc1ccc2cc1Oc1ccc(cc1)C[C@H]1c3cc(c(OC)cc3CCN1C)Oc1c(O)c(OC)cc3c1[C@H](C2)N(C)CC3 [Fangchinoline] (2.5 µM)
inactive: [1] 0 | [2] 0 | [3] 0 | [4] 0 | [5] 0 | [6] 0 | [7] 0 | [8] 0 | [9] 0 | [10] 0

Cn1c(N2CCO[C@@H](c3ccc(F)cc3)C2)nc(-c2ccncn2)cc1=O (10 µM)
inactive: [1] 0 | [2] 0 | [3] 0 | [4] 0 | [5] 0 | [6] 0 | [7] 0 | [8] 0 | [9] 0 | [10] 0

Cc1nc(NC(=O)N2CCC[C@H]2C(N)=O)sc1-c1ccnc(C(C)(C)C(F)(F)F)c1 [Alpelisib] (2.5 µM)
inactive: [1] 0 | [2] 0 | [3] 0 | [4] 0 | [5] 0 | [6] 0 | [7] 0 | [8] 0 | [9] 0 | [10] 0

CCn1c(N)c(C(=O)NC)c(=O)c2ccc(C#CC(C)(O)COC)nc21 (stereo not given) (10 µM)
inactive: [1] 0 | [2] 0 | [3] 0 | [4] 0 | [5] 0 | [6] 0 | [7] 0 | [8] 0 | [9] 0 | [10] 0

O=C(C#Cc1ccccc1)c1cccc([N+](=O)[O-])c1 (10 µM)
inactive: [1] 0 | [2] 0 | [3] 0 | [4] 0 | [5] 0 | [6] 0 | [7] 0 | [8] 0 | [9] 0 | [10] 0

CC(=O)Nc1nc(C)c(-c2cc(C)c3c(c2)CN([C@@H](C)C2CC2)C3=O)s1 (10 µM)
inactive: [1] 0 | [2] 0 | [3] 0 | [4] 0 | [5] 0 | [6] 0 | [7] 0 | [8] 0 | [9] 0 | [10] 0

COc1cc(Nc2ccnc3ccc(Br)cc23)cc(OC)c1OC (2.5 µM)
inactive: [1] 0 | [2] 0 | [3] 0 | [4] 0 | [5] 0 | [6] 0 | [7] 0 | [8] 0 | [9] 0 | [10] 0

CC(C)n1c(CO)nc2c(F)cc(-c3nc(Nc4ccc(CN5CCNCC5)cn4)ncc3F)cc21 (10 µM)
inactive: [1] 0 | [2] 0 | [3] 0 | [4] 0 | [5] 0 | [6] 0 | [7] 0 | [8] 0 | [9] 0 | [10] 0

CN1CCN(Cc2ccc(-c3cn(C4CCC(O)CC4)c4nc(NCCC5CC5)ncc34)cc2)CC1 (stereo not given) (2.5 µM)
inactive: [1] 0 | [2] 0 | [3] 0 | [4] 0 | [5] 0 | [6] 0 | [7] 0 | [8] 0 | [9] 0 | [10] 0

O=C1NC(=O)C(Cc2c[nH]c3c(Cl)cccc23)N1 (stereo not given) [Necroptosis-IN-1] (10 µM)
inactive: [1] 0 | [2] 0 | [3] 0 | [4] 0 | [5] 0 | [6] 0 | [7] 0 | [8] 0 | [9] 0 | [10] 0

CC(C)c1cc2c(c(O)c1O)[C@@]13CCCC(C)(C)[C@@H]1C[C@@H]2OC3=O [Carnosol] (2.5 µM)
inactive: [1] 0 | [2] 0 | [3] 0 | [4] 0 | [5] 0 | [6] 0 | [7] 0 | [8] 0 | [9] 0 | [10] 0

CNCCOc1ccccc1C1(Nc2nccn(-c3cc(C(=O)NC4CC4)cc(F)c3C)c2=O)CC1 (10 µM)
inactive: [1] 0 | [2] 0 | [3] 0 | [4] 0 | [5] 0 | [6] 0 | [7] 0 | [8] 0 | [9] 0 | [10] 0

COCCNc1cc(NC(=O)N2CCCc3cc(CN4CCOCC4=O)c(C=O)nc32)ncc1C#N (10 µM)
inactive: [1] 0 | [2] 0 | [3] 0 | [4] 0 | [5] 0 | [6] 0 | [7] 0 | [8] 0 | [9] 0 | [10] 0

Nc1ccc(-c2nc3ccc(-c4nc5ccc(N)cc5[nH]4)cc3[nH]2)cc1 (10 µM)
inactive: [1] 0 | [2] 0 | [3] 0 | [4] 0 | [5] 0 | [6] 0 | [7] 0 | [8] 0 | [9] 0 | [10] 0

CC(C)Cn1ncc2cc(Oc3ccc(F)cc3F)c(C(=O)NCCN(C)C)cc21 [p38α inhibitor 1] (10 µM)
inactive: [1] 0 | [2] 0 | [3] 0 | [4] 0 | [5] 0 | [6] 0 | [7] 0 | [8] 0 | [9] 0 | [10] 0

Oc1ccc(-c2cnc3ccc(NCc4ccco4)nn23)cc1 [IRAK inhibitor 2] (2.5 µM)
inactive: [1] 0 | [2] 0 | [3] 0 | [4] 0 | [5] 0 | [6] 0 | [7] 0 | [8] 0 | [9] 0 | [10] 0

Quoted from the entries so far, two compounds:
CC(C)Cn1ncc2cc(Oc3ccc(F)cc3F)c(C(=O)NCCN(C)C)cc21 [p38α inhibitor 1] (10 µM)
inactive: [1] 0 | [2] 0 | [3] 0 | [4] 0 | [5] 0 | [6] 0 | [7] 0 | [8] 0 | [9] 0 | [10] 0

Oc1ccc(-c2cnc3ccc(NCc4ccco4)nn23)cc1 [IRAK inhibitor 2] (2.5 µM)
inactive: [1] 0 | [2] 0 | [3] 0 | [4] 0 | [5] 0 | [6] 0 | [7] 0 | [8] 0 | [9] 0 | [10] 0
